Tested on: multifunctional germacrene D synthase (EST75565)
Experiment: Sesquiterpene products of purified recombinant protein + FDP, headspace trapping GC-MS
Assay type: biochemical, Actinidia deliciosa
Settings: for Ratios of products, % at pH 6.5 / Ratios of products, % at pH 7.5 / Ratios of products, % at pH 8.5: 21 hours; for share of sesquiterpene products: purified protein + FDP
[1] = 30 minutes trapping at 0 hours after addition of FDP
[2] = 30 minutes trapping at 1 hour after addition of FDP
[3] = 30 minutes trapping at 2 hours after addition of FDP
[4] = Carbowax/DVB SPME fibres, optimum activity conditions
[5] = dynamic headspace, Chromosorb 105, 18 hours

Row | SMILES | Relative quantities (%) of sesquiterpenes trapped onto PDMS/PDV fibres [1] | Relative quantities (%) of sesquiterpenes trapped onto PDMS/PDV fibres [2] | Relative quantities (%) of sesquiterpenes trapped onto PDMS/PDV fibres [3] | Ratios of products, % at pH 6.5 (Carbowax/DVB SPME fibres) | Ratios of products, % at pH 7.5 (Carbowax/DVB SPME fibres) | Ratios of products, % at pH 8.5 (Carbowax/DVB SPME fibres) | share of sesquiterpene products [4] | share of sesquiterpene products (PDMS/DVB SPME fibres, 24 hours) | share of sesquiterpene products [5]
1 | C=CC1(C)CCC(=C(C)C)CC1C(=C)C (centres unmarked) [gamma-elemene] | 0% | 5.6% | 5.9% | 5.9% | 6.8% | 9.0% | 1.3% | 4.9% | 2.9%
2 | C=C[C@]1(C)CC[C@@H](C(=C)C)C[C@H]1C(=C)C [beta-elemene] |  |  |  | 10.6% | 6.3% | 1.7% |  |  | 
3 | C=C1CC[C@H](C(C)C)[C@H]2C=C(C)CC[C@H]12 [gamma-cadinene] | 14.5% | 13.2% | 12.3% |  |  |  |  | 7.3% | 1.8%
4 | C=C1CC[C@@H](C(C)C)[C@@H]2C=C(C)CC[C@H]12 [gamma-muurolene] | 15% | 20.2% | 20.0% |  |  |  | 0.3% | 14.8% | 3.8%
5 | C=C1C=CC(C(C)C)CCC(C)=CCC1 (centres unmarked) [Germacrene D, 7-iso-propyl-10-methyl-4-methylene-cyclodeca-5,10-diene] | 9.4% | 5.0% | 4.4% | 64.6% | 64.8% | 64.9% | 83% | 4.6% | 54%
6 | CC1=C[C@@H]2[C@H](CC1)C(C)=CC[C@H]2C(C)C [alpha-muurolene] | 0% | 6.9% | 8.3% |  |  |  |  | 5.9% | 
7 | CC1=CCC[C@]2(C)CCC(=C(C)C)C[C@@H]12 [selinadiene, eudesma-3,7(11)-diene] | 15.4% | 7.7% | 7.6% |  |  |  |  | 7.3% | 
8 | C=C[C@@]1(C)CCC(C(C)C)=C[C@@H]1C(=C)C [δ-Elemene] | 0% | 2.7% | 4.0% | 10.4% | 13.4% | 14.6% | 7% |  | 15.5%
9 | CC(C)=C1C/C=C(\C)CC/C=C(\C)CC1 [Germacrene B] | 14.6% | 4.5% | 3.8% | 2.7% | 2.3% | 4.8% | 4.3% |  | 1.4%
10 | C=C(C)[C@@H]1CC[C@@]2(C)CCC=C(C)[C@@H]2C1 [alpha-selinene] | 0% | 6.0% | 4.5% |  |  |  |  |  | 
11 | CC1=C[C@@H]2C(=C(C)CC[C@H]2C(C)C)CC1 [delta-cadinene] | 12.6% | 15.8% | 16.6% |  | 1.2% |  | 0.5% | 14.2% | 3.9%
12 | CC1=C[C@@H]2[C@@H](CC1)C(C)=CC[C@H]2C(C)C [alpha-cadinene] | 0% | 3.4% | 3.9% |  |  |  |  |  | 
13 | C=C[C@]1(C)CC[C@@H](C(C)(C)O)C[C@H]1C(=C)C [Elemol] |  |  |  | 5.9% | 5.2% | 4.9% | 4.2% |  | 16.6%

Reference: patent publication US7312323B2, “Enzymes and polynucleotides encoding the same” (The Horticulture and Food Research Institute of New Zealand …, priority 2002, dated 2007)
